# PubChem BioAssay AID2452 (Broad Institute, 2010)
# This is one part of the list. Measured potencies and affinities stand elsewhere. Entries without a call are filed as inconclusive in the source.
# Test: PubChem AID 2452
# Settings: H4 cells, PrP 5'UTR luciferase reporter translation; at 1.2 µM (top of the series)
compound,measurement,value
Cc1ccc2nc3sc(C(=O)N4CCOCC4)c(N)c3cc2c1,"activity change, negative = inhibition",-29.6%
